In paper PMC6636018 one finds binding data, which are given here for 1 molecule.

Sequences of proteins named here, by UniProt entry; tags and fusion partners are left off.
UniProt Q00987: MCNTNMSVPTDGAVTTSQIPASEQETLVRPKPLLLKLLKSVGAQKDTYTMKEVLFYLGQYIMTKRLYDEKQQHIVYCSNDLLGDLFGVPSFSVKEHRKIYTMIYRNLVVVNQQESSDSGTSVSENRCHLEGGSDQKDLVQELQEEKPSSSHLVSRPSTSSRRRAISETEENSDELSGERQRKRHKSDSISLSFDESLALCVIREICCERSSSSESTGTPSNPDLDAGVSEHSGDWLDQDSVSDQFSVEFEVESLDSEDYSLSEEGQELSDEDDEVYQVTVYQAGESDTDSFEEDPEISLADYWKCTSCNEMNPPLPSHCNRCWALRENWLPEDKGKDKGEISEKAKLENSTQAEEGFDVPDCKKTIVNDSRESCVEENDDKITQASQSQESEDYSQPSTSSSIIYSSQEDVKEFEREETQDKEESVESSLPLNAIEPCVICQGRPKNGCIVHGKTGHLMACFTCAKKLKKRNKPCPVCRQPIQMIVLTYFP

Results are given in words; binding and its absence hold for the method and conditions named. In cells and extracts the contact can be indirect. Some results given as binding are weak or reduced against the parent protein; the word gives no strength.

The experiment has as its target MDM2 (endogenous) (human (endogenous in HCT116 p53-/-)) (UniProt Q00987). Put plainly: co-IP; endogenous proteins; HCT116 p53-/- cells lysed; precipitated with anti-MDM2 antibody, mouse IgG as negative control.

B1: PHLDB2 (endogenous) (protein, UniProt Q86SQ0 1-1253)
chain: MEEHSYIQKELDLQNGSLEEDSVVHSVENDSQNMMESLSPKKYSSSLRFKANGDYSGSYLTLSQPVPAKRSPSPLGTSVRSSPSLAKIQGSKQFSYDGTDKNIPMKPPTPLLNTTSSLSGYPLGRADFDHYTGRDSERALRLSEKPPYSKYSSRHKSHDNVYSLGGLEGRKASGSLLAMWNGSSLSDAGPPPISRSGAASMPSSPKQARKMSIQDSLALQPKLTRHKELASENINLRTRKYSSSSLSHMGAYSRSLPRLYRATENQLTPLSLPPRNSLGNSKRTKLGEKDLPHSVIDNDNYLNFSSLSSGALPYKTSASEGNPYVSSTLSVPASPRVARKMLLASTSSCASDDFDQASYVGTNPSHSLLAGESDRVFATRRNFSCGSVEFDEADLESLRQASGTPQPALRERKSSISSISGRDDLMDYHRRQREERLREQEMERLERQRLETILSLCAEYTKPDSRLSTGTTVEDVQKINKELEKLQLSDEESVFEEALMSPDTRYRCHRKDSLPDADLASCGSLSQSSASFFTPRSTRNDELLSDLTRTPPPPSSTFPKASSESSYLSILPKTPEGISEEQRSQELAAMEETRIVILNNLEELKQKIKDINDQMDESFRELDMECALLDGEQKSETTELMKEKEILDHLNRKIAELEKNIVGEKTKEKVKLDAEREKLERLQELYSEQKTQLDNCPESMREQLQQQLKRDADLLDVESKHFEDLEFQQLEHESRLDEEKENLTQQLLREVAEYQRNIVSRKEKISALKKQANHIVQQAQREQDHFVKEKNNLIMMLQREKENLCNLEKKYSSLSGGKGFPVNPNTLKEGYISVNEINEPCGNSTNLSPSTQFPADADAVATEPATAVLASQPQSKEHFRSLEERKKQHKEGLYLSDTLPRKKTTSSISPHFSSATMGRSITPKAHLPLGQSNSCGSVLPPSLAAMAKDSESRRMLRGYNHQQMSEGHRQKSEFYNRTASESNVYLNSFHYPDHSYKDQAFDTLSLDSSDSMETSISACSPDNISSASTSNIARIEEMERLLKQAHAEKTRLLESREREMEAKKRALEEEKRRREILEKRLQEETSQRQKLIEKEVKIRERQRAQARPLTRYLPVRKEDFDLRSHVETAGHNIDTCYHVSITEKTCRGFLIKMGGKIKTWKKRWFVFDRNKRTFSYYADKHETKLKGVIYFQAIEEVYYDHLKNANKSPNPLLTFSVKTHDRIYYMVAPSPEAMRIWMDVIVTGAEGYTHFLL
Consider B1, for which the binding result is recorded as “binds”.
